T1: Homer1 EVH1 domain
T1 chain: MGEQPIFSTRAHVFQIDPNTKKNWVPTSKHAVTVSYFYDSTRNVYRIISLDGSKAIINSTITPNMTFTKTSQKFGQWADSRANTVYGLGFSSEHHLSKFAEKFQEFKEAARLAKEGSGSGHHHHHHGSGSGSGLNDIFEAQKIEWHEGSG

B1: unnamed (peptide)
chain: EEPSTSVPPTASEVPSTSLPPTPGEGTSTSVPPTAY
B2: unnamed (peptide)
chain: NSLKNVLNILIVYMLFMFIFAVIAVQLFKGKFFYCT
B3: unnamed (peptide)
chain: HLQPVPEPETVLKNQEVEFGRNRERLQFFKWSSRVF
B4: unnamed (peptide)
chain: RVGRTMHHFGYLLLVSGLTTSAAFYASYLSRLPAVC
B5: unnamed (peptide)
chain: HGEGSDTVTPSRAFAWFVTVFISGIVSAAILAVFKY
B6: unnamed (peptide)
chain: GALWLGVLRLLLFKLLLFDLLLTCSCLCDPAGPLPS
B7: unnamed (peptide)
chain: HLILLAIMTITFAVCSLPFTIFAYMNETSSRKEKWE
B8: unnamed (peptide)
chain: MCSRVPLLLPLLLLLALGPGVQGCPSGCQCSQPQTV
B9: unnamed (peptide)
chain: TQEGWVDVMDQTLNAVGHMWAPVVAIYFILYHLFAT
B10: unnamed (peptide)
chain: VLWVLVIVPYLYSTFVSLFLTIKRRREGKTDYYARK
B11: unnamed (peptide)
chain: PPQLFASAAAAPCPLRGFLPPPPRLFITPAAFCPRR
B12: unnamed (peptide)
chain: EGLVISVGGFSLLCILCGLGFVSLAMSGMMIASYVV
B13: unnamed (peptide)
chain: IFQDVIETRGREYAGLYDDISTQGWFIGLMCAIALL
B14: unnamed (peptide)
chain: LFVIFLLAYVTTIGGTLSILAAILMETKLHSPMYFF
B15: unnamed (peptide)
chain: GILITLMTFSIIELFISLPFSILGCHSEDCDCEQCS
B16: unnamed (peptide)
chain: AAAIQGLWALISGLAMGLFYLLEYSRRKRSKSQNIL
B17: unnamed (peptide)
chain: RERLRAGLAGTGASLWFVAGLGLLYALRIPLRLCEN
B18: unnamed (peptide)
chain: EKKSPVGLHFLFLLGTLGLFGLTFAFIIQEDETICS
B19: unnamed (peptide)
chain: NEIQTVRKINSLFQVLTVLFFLEVVGFKNLALMDSS
B20: unnamed (peptide)
chain: NSPNYGLLLLWASLSNAVPVAFWTLAYVLSHPDIHK
B21: unnamed (peptide)
chain: PRPPEAQMVLQPQPQLFFFLSFFLFLFLFLFFFSRD
B22: unnamed (peptide)
chain: GSRNLRAAHALEHTFAPVTDGAISTLLGLLMLAGSH
B23: unnamed (peptide)
chain: YVREPPNAKPDWLKVGFTLGTTVFLWIYLIKQHNED
B24: unnamed (peptide)
chain: LEENEISPSLYAAPWFLTLFASQFSLGFVARVFDII
B25: unnamed (peptide)
chain: MLRMRTAGWARGWCLGCCLLLPLSLSLAAAKQLLRY
B26: unnamed (peptide)
chain: LLHLAVFLWIIIAINFSNSGVKSQSSTYLPSGKILK
B27: unnamed (peptide)
chain: IGVVVASCFSLILLSYIQIIQAILRIHTADGRRRAF
B28: unnamed (peptide)
chain: LGQASFEAMASIINRLHKNLEGNHDQHGRNSLLASY
B29: unnamed (peptide)
chain: MGLLVFVRNLLLALCLFLVLGFLYYSAWKLHLLQWE
B30: unnamed (peptide)
chain: KSMILSHFFRHPNITTYWTVFTVGSWLWVISPFMAY
B31: unnamed (peptide)
chain: RFPDILRVFWLTRVTAQATVLMYILRMANETDSFFI
B32: unnamed (peptide)
chain: MPPLWALLALGCLLFGSAVNLQPQLASVTFATNNPT
B33: unnamed (peptide)
chain: ELQMRRSSLPATDAALIFVLTIGVIICVFIIFLLIF
B34: unnamed (peptide)
chain: SLVLSQESEGKMCFLNKLLLLAVLGCLSQIPTVPED
B35: unnamed (peptide)
chain: KLRGDPLLGTPDIRSRAFFCALLNILSIGCAYSAVQ
B36: unnamed (peptide)
chain: LKNATGLGLIVTSTGILILLHYYVFSTAIGLTSFVI
B37: unnamed (peptide)
chain: QLFFINHVILTDTFIGYLVGNTLWLVAVGYYIYVTF
B38: unnamed (peptide)
chain: TRSGIISTLIINIICIITTITAVTLTIIELSHFNSV
B39: unnamed (peptide)
chain: RTAYVYRVPEEAKILFLALNIVYGVLPQLLAYRCIY
B40: unnamed (peptide)
chain: MAVFKTTLWRLISGTLGIICLSLMATLGILLKNSFI
B41: unnamed (peptide)
chain: LPTLGDVESLVPLYLHLSVNQKLVAAYILGLITMAI
B42: unnamed (peptide)
chain: MKLAFLFLGPMALLLLAGYGCVLGASSGNLRTFVGY
B43: unnamed (peptide)
chain: ISVVSFFVLMASYLIILHFLRSHNLEGQHKALSTYA
B44: unnamed (peptide)
chain: PAWFEDFANGLLSAQKLTAALIVLHTVFISITHVHR

The other results are listed elsewhere or left out. Values are worked out from sequencing counts and are noisy.

In this experiment the target is T1, Homer1 EVH1 domain. The experiment can be described thus: enrichment score (AUC of log2 frequency ratio across FACS sorting rounds) (log2 AUC); higher = stronger enrichment for Homer1 EVH1 binding.
Take B1: the enrichment score was found to be 1.5. As for B2, the enrichment score is 0.996. In the case of B3 it was -4.81; in that of B4, 3.61; in that of B5, 1.84. As for B6, the figure is 1.33; as for B7, 2.46; as for B8, 1.68.

On to B9, for which the enrichment score stood at 3.98. In the case of B10 it was 0.89; in that of B11, 2.74. In the case of B12 it was 1.74; in that of B13, 1.11. In the case of B14 it was 2.55.

For B15, the enrichment score was 1.2. In the case of B16 it was 4.2; in that of B17, 1.12. In the case of B18 it was 0.174; in that of B19, 1.09; in that of B20, 3.37. As for B21, the figure is -0.31; as for B22, 2.65. As to B23, the enrichment score is -0.636. In the case of B24 it was -1.44; in that of B25, 2.38; in that of B26, -1.85. With B27, the enrichment score is 2.95. In the case of B28 it was 1.57; in that of B29, 2.35; in that of B30, 3.28. Turning to B31, the enrichment score was -0.635.

Regarding B32, the enrichment score stood at 4.73.

With B33, the enrichment score was found to be 0.275. Turning to B34, the enrichment score came out at 3.07. As for B35, the figure is 2.55; as for B36, 0.711; as for B37, -0.388.

With B38, the enrichment score was -2.79. B39: the enrichment score is 1.68. As for B40, the figure is 2.27; as for B41, 0.517.

Regarding B42, the enrichment score is 0.472. As for B43, the figure is 1.43; as for B44, 2.36.

The record behind these values is the supplement of paper PMC11237882.
